Assay results taken from PubChem BioAssay AID2685 (National Center for Advancing Translational Sciences (NCATS), 2010).
Some of the results follow. Shown are side measurements of this screen, not its main read-out; they come without a call. The list favours compounds with an active or inconclusive main result. The note in brackets gives the kind of curve behind each potency; many fits are weak. Where a SMILES comes first, the peptide text is derived from it. [ ]: non-standard residue; d: D form. The star is where a group is joined. ξ: configuration not given here. Cbz = O=C(OCc1ccccc1)*; ξP = O=C(O)C1CCCN1

Assay: qHTS Assay for Lipid Storage Modulators in Drosophila S3 Cells;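 as to cell number change: cells counted by Cell Tracker Red CMTPX staining in the red channel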
Details: BODIPY lipid droplet fluorescence, 18-24 h; for cell number change: measured here: cell count max response, cells fed with added oleic acid
How it was run: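 Laser-scanning cytometry quantifies lipid droplet accumulation (500–530 nm total intensity; droplet/cell object ratio) in oleic acid-fed (400 uM added) Drosophila S3 cells treated with a concentration series. 20 uM Triacsin C defined 100% inhibition.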

[1] = measured here: lipid fluorescence (Fed channel) AC50, cells fed with added oleic acid
[2] = measured here: cell number channel AC50, cells fed with added oleic acid

| Compound | cell number change | AC50 [1] | AC50 [2] |
| --- | --- | --- | --- |
| CS(=O)(=O)N(CC(=O)NCc1ccco1)c1ccc(Cl)cc1Cl | 4.15% |  |  |
| O=C(Nc1cccc(-c2nc3ncccc3o2)c1)c1sc2cc(Cl)ccc2c1Cl | 0.0766% | 29.1 µM [rising, single point] |  |
| Cc1c(C(=O)N2CCOCC2)sc2nc(-c3ccccc3)cn12 | 2.11% | 7.31 µM [falling, partial curve, poor fit] |  |
| O=C(O)c1occc1CSc1ccccc1 | 31.5% | 0.58 µM [falling, single point] | 0.0651 µM [rising, full curve, poor fit] |
| O=C(CO)N/N=C/c1c2ccccc2cc2ccccc12 | 81.2% |  | 29.1 µM [rising, single point] |
| C=CCn1c(C)cc(C(=O)COC(=O)c2ccc3c(c2)NC(=O)CS3)c1C | 44.3% |  | 25.9 µM [rising, single point] |
| CC[C@H](C)NC(=O)c1ccc(Cn2c(=S)[nH]c3c([nH]c4ccc(OC)cc43)c2=O)cc1 | -12.5% | 29.1 µM [falling, single point] |  |
| O=C(O)CNC(=O)C1CCCN1C(=O)CNC(=O)OCc1ccccc1 (stereo not drawn) (Cbz-Gly-[ξP]-Gly-OH) |  | 6.51 µM [falling, single point] |  |
| CC(OC(=O)C1CC1)C(=O)Nc1ccc([N+](=O)[O-])cc1Cl (stereo not drawn) | 14.3% |  |  |
| O=C(Nc1ccc(NC(=O)c2ccco2)c(Cl)c1)c1cccc([N+](=O)[O-])c1 | 20.8% |  |  |
| CC(=O)NCCn1c(SCc2ccc(C)cc2C)nc2ccccc2c1=O | 87.7% |  | 3.26 µM [rising, full curve] |
| Cc1cc(C(=O)N(C)CC(=O)Nc2ccccc2C(F)(F)F)c(C)o1 | 13.9% | 0.0326 µM [rising, full curve, poor fit] |  |
| CN(CC1CCCO1)S(=O)(=O)c1ccc(C(=O)Nc2nc(-c3ccccn3)cs2)cc1 (stereo not drawn) | -18.5% | 29.1 µM [falling, single point] |  |
| N#C/C(=C\c1ccc(O)cc1)c1nc2ccccc2o1 | -40.2% | 29.1 µM [falling, single point] | 16.4 µM [falling, single point] |
| O=C(COC(=O)c1c(F)cccc1F)NCCNC(=O)COC(=O)c1c(F)cccc1F | 1.25% | 11.6 µM [falling, partial curve, poor fit] |  |
| Clc1ccc(-c2ccnc(-n3cccc3)n2)s1 |  | 20.6 µM [rising, partial curve] |  |
| O=S(Cc1ccc(Br)cc1)Cc1nnc(SCc2c(Cl)cccc2Cl)n1-c1ccccc1 (stereo not drawn) | -88.6% | 29.1 µM [falling, single point] | 29.1 µM [falling, single point] |
| Cc1ccc(S(=O)(=O)NCC(=O)NCC(=O)OCC(=O)N2CC(=O)Nc3ccccc32)cc1C | -11.9% | 0.461 µM [falling, full curve] |  |
| COc1cccc(NC(=O)CN2CCC(C)CC2)c1 | -17% | 0.92 µM [falling, full curve] | 0.731 µM [falling, full curve, poor fit] |

| Compound | cell number change | AC50 [1] | AC50 [2] |
| --- | --- | --- | --- |
| O=C(c1ccc(CS(=O)(=O)c2ccc(Br)cc2)o1)N1CCCC1 | -30.3% | 0.116 µM [rising, full curve, poor fit] | 29.1 µM [falling, single point] |
| O=C(CSC1=Nc2ccccc2C2CC=NN12)Nc1ccc(F)cc1Cl (stereo not drawn) | -55% |  |  |
| O=C(NCc1ccccc1)C1CCN(C(=O)NCc2ccccc2)CC1 | -44.9% |  | 29.1 µM [falling, single point] |
| CC(=O)CCS(=O)(=O)c1ccc(NC(C)=O)cc1 | -25.8% | 6.51 µM [falling, partial curve] | 0.517 µM [falling, full curve, poor fit] |
| S=C(NCc1ccccc1)N1CCN(C(=S)NCc2ccccc2)CC1 | -15.2% | 6.51 µM [rising, partial curve, poor fit] |  |
| O=C(COC(=O)CNS(=O)(=O)c1c(F)cccc1F)NC(=O)NC1CCCCC1 | -11.3% | 0.00461 µM [falling, full curve, poor fit] |  |
| Cc1ccc(S(=O)(=O)N(CC(=O)N/N=C/c2ccco2)c2cc(Cl)cc(Cl)c2)cc1 | 9.95% | 1.16 µM [falling, single point] |  |
| CCOc1ccc(CN2CCN(Cc3ccc4cc(F)ccc4n3)CC2CCO)cc1 (stereo not drawn) | -14.2% | 29.1 µM [falling, single point] |  |
| CC(C)(CNC(=O)c1ccc(NS(=O)(=O)c2ccc(F)c(F)c2)cc1)N1CCOCC1 |  |  | 0.731 µM [rising, full curve] |
| Cc1ccc(CS(=O)Cc2ccc(C(=O)NCc3ccc4c(c3)OCO4)o2)cc1 (stereo not drawn) | 2.29% | 6.51 µM [rising, single point] |  |
| N#C/C(=C\c1ccc(-c2cccc(C(F)(F)F)c2)o1)C(=O)Nn1cnnc1 | -17.7% |  |  |
| CCOC(=O)NC(C(F)(F)F)(C(F)(F)F)P(=O)(c1ccccc1)c1ccccc1 | -1.58% | 0.00461 µM [rising, full curve, poor fit] |  |
| Cc1ccc(C2=NS(=O)(=O)N(C)C(C(=O)NCc3ccccc3)=C2)cc1 | -2.59% | 16.4 µM [falling, single point] |  |
| CC(C)(C)C(=O)Nc1ccc(NC(=O)c2ccco2)nc1 | 5.56% | 0.58 µM [rising, single point] |  |
| O=C(c1ccc(N2CCCC2=O)cc1)N1CCN(c2ccccc2O)CC1 | 13.6% | 0.116 µM [falling, full curve, poor fit] |  |
| Cc1ccc(C(=O)NCC(=O)N2CCC3(CC2)NCCc2[nH]cnc23)cc1C | -27.4% |  |  |
| O=[N+]([O-])c1ccccc1S(=O)(=O)Oc1ccc(C(=S)N2CCOCC2)cc1 | 9.84% | 11.6 µM [rising, partial curve] |  |
| COc1ccc(N2C(=O)CSCC2=O)cc1OC | 33.1% |  | 3.26 µM [rising, partial curve, poor fit] |
| CCOC(=O)N1CCN(C(=O)CCN2C(=O)COc3ccc(C)cc32)CC1 |  | 4.61 µM [falling, partial curve] | 6.51 µM [falling, single point] |

Part of the list above in order of formula weight, low to high.

| Compound | cell number change | AC50 [1] | AC50 [2] |
| --- | --- | --- | --- |
| COc1ccc(N2C(=O)CSCC2=O)cc1OC | 33.1% |  | 3.26 µM [rising, partial curve, poor fit] |
| CC(=O)CCS(=O)(=O)c1ccc(NC(C)=O)cc1 | -25.8% | 6.51 µM [falling, partial curve] | 0.517 µM [falling, full curve, poor fit] |
| O=C(COC(=O)CNS(=O)(=O)c1c(F)cccc1F)NC(=O)NC1CCCCC1 | -11.3% | 0.00461 µM [falling, full curve, poor fit] |  |
